PMC11490716, “Evolutionary and molecular basis of ADP-ribosylation reversal by zinc-dependent macrodomains” (The Journal of Biological Chemistry, 2024)
These are yes or no findings as the source states them, for the method shown. Some results given as binding are weak or reduced against the parent protein; the word gives no strength.

Amino acid sequences for entries named in this document (tags omitted).
UniProt P0DN70: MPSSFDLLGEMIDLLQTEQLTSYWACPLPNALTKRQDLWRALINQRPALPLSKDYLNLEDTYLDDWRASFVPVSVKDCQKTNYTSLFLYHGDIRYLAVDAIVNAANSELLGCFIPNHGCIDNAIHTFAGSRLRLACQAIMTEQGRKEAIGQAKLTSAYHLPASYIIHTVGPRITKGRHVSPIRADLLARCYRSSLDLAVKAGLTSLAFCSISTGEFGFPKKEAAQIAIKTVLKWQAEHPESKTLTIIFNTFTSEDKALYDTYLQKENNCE
UniProt A0A0H3JT43: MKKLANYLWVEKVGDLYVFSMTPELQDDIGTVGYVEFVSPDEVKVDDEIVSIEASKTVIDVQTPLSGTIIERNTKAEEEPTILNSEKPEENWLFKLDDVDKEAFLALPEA

T1: Staphylococcus aureus zinc-containing macrodomain (SauMacro) (Staphylococcus aureus) (UniProt P67343)
T1 sequence: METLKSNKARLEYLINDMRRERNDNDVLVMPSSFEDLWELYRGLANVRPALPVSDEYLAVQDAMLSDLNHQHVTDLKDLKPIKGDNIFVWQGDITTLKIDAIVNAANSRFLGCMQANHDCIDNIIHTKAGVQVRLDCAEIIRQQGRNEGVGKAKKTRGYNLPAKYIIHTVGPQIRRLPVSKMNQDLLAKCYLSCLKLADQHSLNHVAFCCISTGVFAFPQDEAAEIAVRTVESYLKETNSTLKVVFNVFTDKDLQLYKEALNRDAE


Columns and labels:
[1] = target: T1, Staphylococcus aureus zinc-containing macrodomain (SauMacro) (Staphylococcus aureus); test: SEC; analytical SEC, Superdex 200 Increase 10/300 GL; proteins alone or as 1:1.2 M mixture (50 μM SauMacro, 60 μM SauGcvH-L) in TZNK/D buffer (50 mM TrisHCl pH 8, 150 mM KCl, 12 mM NaCl, 100 μM zinc acetate, 2 mM MgCl2, 5 mM DTT); fractions analysed by immunoblot; both purified
[2] = target: Streptococcus pyogenes zinc-containing macrodomain (SpyMacro) (Streptococcus pyogenes) (UniProt P0DN70); test: SAXS (SEC-SAXS); both purified
[3] = target: Streptococcus pyogenes zinc-containing macrodomain (SpyMacro) (Streptococcus pyogenes) (UniProt P0DN70); test: SAXS (SEC-SAXS); SpyMacro and lipoyl-SpyGcvH-L alone or as 1:1.2 M complex; Shodex KW402.5-4F column in SAXS buffer (25 mM TrisHCl pH 8, 150 mM NaCl, 2.5 mM TCEP, 3% glycerol); scatter compared with the AlphaFold 3 model of the complex; both purified

Molecule	binding [1]	other results
Staphylococcus aureus zinc-containing macrodomain (SauMacro) (from UniProt P67343 1-266) (enzyme)	no binding (tested: 50 μM)	–
Streptococcus pyogenes zinc-containing macrodomain (SpyMacro) (from UniProt P0DN70 1-270) (enzyme)	–	binding [2]: no binding
lipoylated Staphylococcus aureus glycine cleavage system H-like protein (lipoyl-SauGcvH-L) (from UniProt A0A0H3JT43 1-110)	binds	–
lipoylated Streptococcus pyogenes glycine cleavage system H-like protein (lipoyl-SpyGcvH-L) (protein, UniProt P0DN69 1-110, lipoyl-lysine at Lys56 (lipoylated in vivo)) MKKIANYLLIEKTDDRYTISMTPELQDDIGTIGYAEFTDNDHLAVDDIILNLEASKTVMSVLSPLAGAVVERNEAATLTPTLLNSEKAEENWIVVLTDVDQAAFDALEDA	–	binding [3]: binds
